Experimental data from patent US5079239A, “Sterol disulfates and methods of use” (Harbor Branch Oceanographic Institution, Inc., priority 1990, dated 1992).
The name of at least one read-out is uncertain.

Tested on: MDCK cells
Settings: 2 μg

CCCC12OC3CC4C5CCC6CC(OS(=O)(=O)O)C(OS(=O)(=O)O)CC6(C)C5CCC4(C)C3C(C)(O1)C(CC1(C(C)C)CC1C)O2 (stereo not shown) [HB124]
toxicity: 0 (0-10=0 Non-toxic)
